# In PubChem BioAssay (EPA / NIEHS):
# Chains of the proteins cited; added tags and fusions are not shown. Lines headed by an entry give the natural chain unless they say otherwise; changes in a name come on top.
# UniProt P04150: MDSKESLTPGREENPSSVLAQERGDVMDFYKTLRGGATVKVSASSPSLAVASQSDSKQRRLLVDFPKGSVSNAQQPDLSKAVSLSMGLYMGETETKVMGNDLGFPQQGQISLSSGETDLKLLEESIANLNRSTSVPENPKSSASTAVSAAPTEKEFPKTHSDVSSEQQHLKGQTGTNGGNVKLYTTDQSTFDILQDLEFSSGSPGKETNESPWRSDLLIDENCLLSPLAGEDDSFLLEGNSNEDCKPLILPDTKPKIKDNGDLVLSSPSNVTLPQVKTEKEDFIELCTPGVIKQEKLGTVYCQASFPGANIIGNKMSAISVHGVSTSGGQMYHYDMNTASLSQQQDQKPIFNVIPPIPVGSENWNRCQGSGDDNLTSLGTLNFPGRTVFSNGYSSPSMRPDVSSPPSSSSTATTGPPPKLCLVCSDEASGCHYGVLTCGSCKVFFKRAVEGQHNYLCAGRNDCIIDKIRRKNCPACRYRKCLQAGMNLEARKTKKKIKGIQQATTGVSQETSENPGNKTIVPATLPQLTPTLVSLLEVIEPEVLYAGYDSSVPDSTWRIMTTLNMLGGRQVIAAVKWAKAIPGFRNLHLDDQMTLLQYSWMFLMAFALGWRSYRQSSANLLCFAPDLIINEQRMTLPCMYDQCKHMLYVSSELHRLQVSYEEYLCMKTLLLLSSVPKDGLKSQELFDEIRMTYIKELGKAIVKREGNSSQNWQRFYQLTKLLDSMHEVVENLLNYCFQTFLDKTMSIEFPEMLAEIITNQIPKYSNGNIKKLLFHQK
# UniProt P41235: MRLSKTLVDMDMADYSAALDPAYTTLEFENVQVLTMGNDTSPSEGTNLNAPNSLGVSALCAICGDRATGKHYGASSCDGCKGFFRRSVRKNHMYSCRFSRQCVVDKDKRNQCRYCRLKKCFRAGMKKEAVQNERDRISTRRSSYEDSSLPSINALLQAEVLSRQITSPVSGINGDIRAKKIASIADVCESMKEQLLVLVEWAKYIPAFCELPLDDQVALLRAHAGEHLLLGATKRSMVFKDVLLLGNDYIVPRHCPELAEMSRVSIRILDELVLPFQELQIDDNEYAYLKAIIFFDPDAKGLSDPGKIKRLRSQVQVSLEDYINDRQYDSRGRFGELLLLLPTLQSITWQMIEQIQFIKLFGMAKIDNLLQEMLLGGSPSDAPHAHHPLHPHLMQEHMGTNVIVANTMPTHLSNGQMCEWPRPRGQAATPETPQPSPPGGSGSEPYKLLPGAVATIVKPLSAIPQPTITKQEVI
# UniProt Q03181: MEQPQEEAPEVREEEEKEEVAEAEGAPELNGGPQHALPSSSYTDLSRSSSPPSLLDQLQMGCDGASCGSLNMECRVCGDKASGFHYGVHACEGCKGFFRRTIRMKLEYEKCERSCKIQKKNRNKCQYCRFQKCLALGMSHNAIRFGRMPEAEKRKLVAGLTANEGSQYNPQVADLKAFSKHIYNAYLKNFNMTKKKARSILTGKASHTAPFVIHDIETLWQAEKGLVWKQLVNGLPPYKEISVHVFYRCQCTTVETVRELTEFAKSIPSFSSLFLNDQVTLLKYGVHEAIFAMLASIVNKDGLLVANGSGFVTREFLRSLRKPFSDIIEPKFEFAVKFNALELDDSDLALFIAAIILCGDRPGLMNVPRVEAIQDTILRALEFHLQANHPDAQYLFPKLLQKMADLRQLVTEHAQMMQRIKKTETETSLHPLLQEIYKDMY
# UniProt P10826, whole entry, looked up: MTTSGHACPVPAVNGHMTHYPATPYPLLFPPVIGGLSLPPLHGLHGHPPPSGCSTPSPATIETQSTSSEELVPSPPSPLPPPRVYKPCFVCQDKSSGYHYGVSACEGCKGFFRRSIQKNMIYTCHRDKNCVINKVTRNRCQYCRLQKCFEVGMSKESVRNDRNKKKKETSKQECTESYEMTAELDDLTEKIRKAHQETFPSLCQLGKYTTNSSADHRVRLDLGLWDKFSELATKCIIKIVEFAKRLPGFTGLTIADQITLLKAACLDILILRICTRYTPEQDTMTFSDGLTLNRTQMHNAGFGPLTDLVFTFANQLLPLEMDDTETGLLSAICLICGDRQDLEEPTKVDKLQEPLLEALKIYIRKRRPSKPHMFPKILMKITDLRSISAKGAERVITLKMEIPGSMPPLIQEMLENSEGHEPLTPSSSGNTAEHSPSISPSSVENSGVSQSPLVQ
# UniProt P03372, whole entry, looked up: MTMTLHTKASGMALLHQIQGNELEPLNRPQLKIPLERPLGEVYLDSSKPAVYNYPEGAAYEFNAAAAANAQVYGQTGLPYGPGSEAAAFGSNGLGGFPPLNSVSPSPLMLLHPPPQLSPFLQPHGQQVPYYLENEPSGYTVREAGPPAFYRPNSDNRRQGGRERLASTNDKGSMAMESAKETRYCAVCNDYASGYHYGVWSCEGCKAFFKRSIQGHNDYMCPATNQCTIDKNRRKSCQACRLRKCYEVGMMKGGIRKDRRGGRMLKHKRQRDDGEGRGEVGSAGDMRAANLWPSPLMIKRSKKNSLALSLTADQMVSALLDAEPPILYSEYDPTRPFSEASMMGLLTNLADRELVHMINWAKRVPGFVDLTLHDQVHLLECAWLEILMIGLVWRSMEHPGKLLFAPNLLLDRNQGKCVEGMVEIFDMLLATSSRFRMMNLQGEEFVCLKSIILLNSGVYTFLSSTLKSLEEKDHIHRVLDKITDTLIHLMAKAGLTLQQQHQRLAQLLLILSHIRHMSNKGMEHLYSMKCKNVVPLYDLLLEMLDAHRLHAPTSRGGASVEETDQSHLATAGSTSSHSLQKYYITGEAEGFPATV
# UniProt P62508: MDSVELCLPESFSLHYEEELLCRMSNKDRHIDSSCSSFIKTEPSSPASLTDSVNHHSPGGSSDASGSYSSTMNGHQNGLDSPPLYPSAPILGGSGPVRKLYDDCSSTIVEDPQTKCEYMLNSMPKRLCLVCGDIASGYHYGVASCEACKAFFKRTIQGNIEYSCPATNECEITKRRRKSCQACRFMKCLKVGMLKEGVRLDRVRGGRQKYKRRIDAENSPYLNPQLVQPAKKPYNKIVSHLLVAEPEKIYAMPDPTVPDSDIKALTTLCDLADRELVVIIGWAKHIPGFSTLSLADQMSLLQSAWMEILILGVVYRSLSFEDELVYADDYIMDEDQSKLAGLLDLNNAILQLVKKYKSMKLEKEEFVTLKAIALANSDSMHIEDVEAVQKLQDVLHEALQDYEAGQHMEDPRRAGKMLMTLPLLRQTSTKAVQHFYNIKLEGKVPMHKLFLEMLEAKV
# UniProt P55055, whole entry, looked up: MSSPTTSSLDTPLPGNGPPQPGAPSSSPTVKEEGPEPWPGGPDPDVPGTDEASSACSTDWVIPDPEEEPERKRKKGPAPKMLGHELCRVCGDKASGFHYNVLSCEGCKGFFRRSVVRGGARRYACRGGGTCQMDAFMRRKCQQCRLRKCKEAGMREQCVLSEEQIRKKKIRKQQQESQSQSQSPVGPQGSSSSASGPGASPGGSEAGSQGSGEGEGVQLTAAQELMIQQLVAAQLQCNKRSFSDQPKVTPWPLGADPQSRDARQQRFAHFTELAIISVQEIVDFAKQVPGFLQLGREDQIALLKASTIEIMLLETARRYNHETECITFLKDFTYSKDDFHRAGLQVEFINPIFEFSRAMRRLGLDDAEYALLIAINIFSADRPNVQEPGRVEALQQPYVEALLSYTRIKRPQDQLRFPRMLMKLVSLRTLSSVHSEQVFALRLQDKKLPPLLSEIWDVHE
# UniProt P43354, whole entry, looked up: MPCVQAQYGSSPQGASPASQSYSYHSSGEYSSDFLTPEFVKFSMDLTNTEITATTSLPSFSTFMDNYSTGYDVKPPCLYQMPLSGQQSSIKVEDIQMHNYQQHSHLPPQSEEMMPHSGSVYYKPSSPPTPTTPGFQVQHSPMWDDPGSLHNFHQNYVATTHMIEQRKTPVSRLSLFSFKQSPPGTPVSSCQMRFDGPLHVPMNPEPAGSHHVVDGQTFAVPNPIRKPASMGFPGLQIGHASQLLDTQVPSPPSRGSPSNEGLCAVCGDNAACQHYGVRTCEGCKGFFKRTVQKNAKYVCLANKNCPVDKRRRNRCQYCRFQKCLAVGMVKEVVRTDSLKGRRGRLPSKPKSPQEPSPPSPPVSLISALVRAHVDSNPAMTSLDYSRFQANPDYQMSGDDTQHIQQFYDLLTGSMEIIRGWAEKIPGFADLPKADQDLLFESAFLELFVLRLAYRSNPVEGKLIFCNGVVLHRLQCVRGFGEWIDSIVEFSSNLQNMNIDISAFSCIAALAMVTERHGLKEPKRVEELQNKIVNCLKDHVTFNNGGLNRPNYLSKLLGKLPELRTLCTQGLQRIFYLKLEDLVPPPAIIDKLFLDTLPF
# UniProt Q13133, whole entry, looked up: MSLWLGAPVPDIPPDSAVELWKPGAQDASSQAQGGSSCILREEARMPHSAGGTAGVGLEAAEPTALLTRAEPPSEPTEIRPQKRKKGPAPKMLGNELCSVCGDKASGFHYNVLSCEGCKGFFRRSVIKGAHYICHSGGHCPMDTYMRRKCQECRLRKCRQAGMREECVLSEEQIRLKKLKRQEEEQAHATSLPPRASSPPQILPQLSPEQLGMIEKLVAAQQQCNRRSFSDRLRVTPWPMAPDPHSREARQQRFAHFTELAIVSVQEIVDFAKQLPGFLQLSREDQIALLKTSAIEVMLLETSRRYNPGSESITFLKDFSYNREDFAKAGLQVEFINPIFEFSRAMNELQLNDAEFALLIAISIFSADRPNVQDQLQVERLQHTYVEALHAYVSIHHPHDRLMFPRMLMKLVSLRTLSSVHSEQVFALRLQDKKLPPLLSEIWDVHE
# UniProt Q07869: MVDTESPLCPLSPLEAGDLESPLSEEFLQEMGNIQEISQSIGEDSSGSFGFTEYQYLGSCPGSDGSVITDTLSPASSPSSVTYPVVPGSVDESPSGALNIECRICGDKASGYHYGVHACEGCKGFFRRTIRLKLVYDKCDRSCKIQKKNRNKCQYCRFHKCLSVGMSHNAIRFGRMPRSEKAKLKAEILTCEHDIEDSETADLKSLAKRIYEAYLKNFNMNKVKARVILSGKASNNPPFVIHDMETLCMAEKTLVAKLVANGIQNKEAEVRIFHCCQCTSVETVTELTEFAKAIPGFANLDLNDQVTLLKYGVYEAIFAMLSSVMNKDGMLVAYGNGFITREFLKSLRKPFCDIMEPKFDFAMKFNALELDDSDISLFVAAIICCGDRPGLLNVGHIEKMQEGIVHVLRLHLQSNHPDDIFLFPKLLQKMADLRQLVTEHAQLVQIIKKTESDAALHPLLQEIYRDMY
# UniProt P11474: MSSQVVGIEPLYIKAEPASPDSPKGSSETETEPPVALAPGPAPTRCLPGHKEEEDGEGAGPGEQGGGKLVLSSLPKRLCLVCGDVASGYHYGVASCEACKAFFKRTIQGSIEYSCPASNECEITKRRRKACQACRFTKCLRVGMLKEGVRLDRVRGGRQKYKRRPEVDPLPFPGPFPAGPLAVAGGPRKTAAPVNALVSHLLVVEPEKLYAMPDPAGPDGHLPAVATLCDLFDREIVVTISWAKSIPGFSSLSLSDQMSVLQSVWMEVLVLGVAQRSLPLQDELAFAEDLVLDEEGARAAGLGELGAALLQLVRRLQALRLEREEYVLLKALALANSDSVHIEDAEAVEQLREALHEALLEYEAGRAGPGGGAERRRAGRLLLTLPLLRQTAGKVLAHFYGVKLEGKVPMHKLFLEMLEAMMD
# UniProt Q96RI1: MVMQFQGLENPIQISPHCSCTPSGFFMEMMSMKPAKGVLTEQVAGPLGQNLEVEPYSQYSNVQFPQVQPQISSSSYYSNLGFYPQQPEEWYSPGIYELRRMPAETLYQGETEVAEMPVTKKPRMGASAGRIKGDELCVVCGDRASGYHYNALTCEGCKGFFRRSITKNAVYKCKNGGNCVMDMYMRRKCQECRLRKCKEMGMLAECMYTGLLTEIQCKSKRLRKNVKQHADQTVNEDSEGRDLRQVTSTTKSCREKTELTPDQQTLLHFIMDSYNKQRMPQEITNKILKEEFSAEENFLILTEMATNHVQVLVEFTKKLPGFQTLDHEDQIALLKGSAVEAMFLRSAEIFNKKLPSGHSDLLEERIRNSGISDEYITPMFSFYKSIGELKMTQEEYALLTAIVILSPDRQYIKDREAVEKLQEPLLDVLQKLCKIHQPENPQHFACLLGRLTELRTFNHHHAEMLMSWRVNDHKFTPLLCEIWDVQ
# Where “and” joins values, the source holds several entries; their conditions need not be identical. Equal entries are not always repeated. The shares of active, inactive and inconclusive entries below differ from those in the screen. For some assays here: Potencies of inconclusive entries are doubtful fits and often do not repeat. Calls of active or inactive are those of the source. Rule for the calls: active = hit-call score of the fitted dose curve at least 0.9, where 1 is the maximum; inconclusive = response in the unintended direction; inactive = score below 0.9.
# Legend:
# [1] = ATG_GAL4_TRANS: Attagene TRANS-FACTORIAL HepG2 Assay for GAL4 (Internal Marker) (AID 2282976); conditions: HepG2 Attagene TRANS GAL4 internal marker reporter
# Method in brief: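 Liver HepG2 line bearing multiplexed GAL4-UAS reporter constructs; 24 h chemical treatment. Transcripts were quantified as fluorescent fragments on capillary electrophoresis after RT-PCR and HpaI cut, with activity fitted upward from DMSO.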
# [2] = biological target: Glucocorticoid receptor (Homo sapiens) (UniProt P04150); test: ATG_GR_TRANS: Attagene TRANS-FACTORIAL HepG2 Assay for human Glucocorticoid Receptor (GR) (AID 2282978); conditions: HepG2 Attagene TRANS GR reporter, mRNA transcription;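 note: activators score as hits since higher reporter transcript over DMSO is fitted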
# Method in brief: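 Transient MRTU transfection of HepG2 (GAL4-UAS reporters, exogenous NR-GAL4 chimeras), 24 h dosing. Readout: reporter transcript via RT-PCR + capillary electrophoresis fluorescence. Positive direction vs DMSO baseline.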
# [3] = biological target: Hepatocyte nuclear factor 4-alpha (Homo sapiens) (UniProt P41235); test: ATG_HNF4a_TRANS: Attagene TRANS-FACTORIAL HepG2 Assay for human Hepatocyte Nuclear Factor 4 alpha (HNF4a) (AID 2282982); conditions: HepG2 HNF4a transactivation reporter, mRNA readout
# Method in brief: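 Cells used were human HepG2, transiently carrying GAL4-UAS reporter units read out against exogenous NR-GAL4 chimeras. Reporter transcript levels after 24 h dosing were quantified by fluorescent RT-PCR and capillary electrophoresis.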
# [4] = ATG_M_32_TRANS: Attagene TRANS-FACTORIAL HepG2 Assay for M32 Transcription Factor (Internal Marker) (AID 2282984); conditions: HepG2 Attagene TRANS M32 internal marker reporter;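 for outcome: transcript level of a background control reporter unit measured by RT-PCR and capillary electrophoresis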
# Method in brief: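 Human hepatoma HepG2, transient MRTU transfection, 24 h treatment. RNA → RT-PCR → fluorescent primer extension → HpaI digest (2 h, 37 C) → CE. Positive-direction fit vs DMSO.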
# [5] = biological target: human Peroxisome Proliferator-activated Receptor delta (PPARd), PPARD (gene 5467) (UniProt Q03181); test: ATG_PPARd_TRANS: Attagene TRANS-FACTORIAL HepG2 Assay for human Peroxisome Proliferator-activated Receptor delta (PPARd) (AID 2283002)
# Method in brief: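 Multiplexed trans-activation format: HepG2 liver cells expressing exogenous NR-Gal4 chimeras and GAL4-UAS reporters were exposed for 24 h. Reporter mRNA was detected by RT-PCR with capillary electrophoresis fluorescence; activity fitted as gain of signal relative to DMSO.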
# [6] = biological target: human Retinoic Acid Receptor beta (RARb), RARB (gene 5915) (UniProt P10826); test: ATG_RARb_TRANS: Attagene TRANS-FACTORIAL HepG2 Assay for human Retinoic Acid Receptor beta (AID 2283004)
# Method in brief: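 Fluorescent capillary-electrophoresis detection of GAL4-UAS reporter mRNA defines the endpoint, with induction over DMSO-treated wells scored as activity. Transiently transfected human hepatoma HepG2 cells expressing exogenous NR–Gal4 proteins are exposed to test chemicals for 24 h.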
# [7] = biological target: Estrogen receptor (Homo sapiens) (UniProt P03372); test: ATG_ERa_TRANS: Attagene TRANS-FACTORIAL HepG2 Assay for human Estrogen Receptor alpha (ERa) (AID 2282970); conditions: HepG2 Attagene TRANS ERa GAL4 reporter, mRNA
# Method in brief: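 Multiplexed cell-based reporter format in HepG2: chimeric ERa-Gal4 protein drives GAL4-UAS reporter transcription. Fluorescent reporter mRNA quantified by capillary electrophoresis 24 hours after dosing; endpoint fitted as signal gain against DMSO.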
# [8] = ATG_M_19_TRANS: Attagene TRANS-FACTORIAL HepG2 Assay for M19 Transcription Factor (Internal Marker) (AID 2282974); conditions: HepG2 Attagene TRANS-FACTORIAL M19 internal marker reporter
# Method in brief: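 24 h chemical exposure of transiently transfected HepG2 (MRTU library). RNA → oligo(dT) RT → PCR → 6-FAM labelling → HpaI cut → CE fluorescence. Positive-direction fit vs DMSO baseline; background internal-marker readout.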
# [9] = biological target: Estrogen-related receptor gamma (Homo sapiens) (UniProt P62508); test: ATG_ERRg_TRANS: Attagene TRANS-FACTORIAL HepG2 Assay for human Estrogen-Related Receptor gamma (ERRg) (AID 2282977); conditions: HepG2 Attagene TRANS reporter, ERRg transactivation;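 note: hits increase reporter signal over DMSO so potencies reflect activators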
# Method in brief: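 HepG2 cells transiently transfected with multiplexed GAL4-UAS reporter units driven by chimeric NR-Gal4 proteins; 24 h exposure. Reporter mRNA quantified by RT-PCR, fluorescent labelling, HpaI digestion and capillary electrophoresis; gain of signal vs DMSO.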
# [10] = biological target: Oxysterols receptor LXR-beta (Homo sapiens) (UniProt P55055); test: ATG_LXRb_TRANS: Attagene TRANS-FACTORIAL HepG2 Assay for human Liver X Receptor beta (LXRb) (AID 2282981); conditions: HepG2 Attagene TRANS GAL4-LXRb reporter, mRNA
# Method in brief: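 In this TRANS format, exogenous chimeric NR-Gal4 protein activity, not endogenous factors, drives reporter expression in transfected human HepG2 cells. Exposure lasted 24 h; reporter mRNA was read by fluorescent capillary electrophoresis.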
# [11] = ATG_M_06_TRANS: Attagene TRANS-FACTORIAL HepG2 Assay for M06 Transcription Factor (Internal Marker) (AID 2282983); conditions: HepG2 Attagene TRANS M06 internal marker reporter;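 for AC50: potency for rise in reporter mRNA above DMSO baseline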
# Method in brief: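 Internal-marker background readout from a multiplexed TRANS reporter system in HepG2; 24 h dosing; mRNA induction quantified by RT-PCR plus capillary electrophoresis fluorescence; DMSO as negative control and baseline.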
# [12] = biological target: Nuclear receptor subfamily 4 group A member 2 (Homo sapiens) (UniProt P43354); test: ATG_NURR1_TRANS: Attagene TRANS-FACTORIAL HepG2 Assay for human Nuclear Receptor Related Protein 1 (NURR1) (AID 2282985); conditions: HepG2 Attagene TRANS reporter, mRNA readout
# Method in brief: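 After 24 h chemical dosing, total RNA from transiently transfected HepG2 cells was reverse-transcribed and reporter cDNA PCR-amplified, FAM-labelled and analysed by capillary electrophoresis. Activity fitted in positive direction, DMSO as negative control.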
# [13] = biological target: Oxysterols receptor LXR-alpha (Homo sapiens) (UniProt Q13133); test: ATG_LXRa_TRANS: Attagene TRANS-FACTORIAL HepG2 Assay for human Liver X Receptor alpha (LXRa) (AID 2282980); conditions: HepG2 Attagene TRANS reporter, LXRa transactivation
# Method in brief: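 In this multiplexed TRANS system, compounds act on HepG2 cells carrying GAL4-UAS reporter units and a receptor-GAL4 fusion for 24 h. Induced reporter RNA is amplified, fluorescently labelled and sized by capillary electrophoresis, with DMSO as baseline.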
# [14] = biological target: human Peroxisome Proliferator-activated Receptor alpha (PPARa), PPARA (gene 5465) (UniProt Q07869); test: ATG_PPARa_TRANS: Attagene TRANS-FACTORIAL HepG2 Assay for human Peroxisome Proliferator-activated Receptor alpha (PPARa) (AID 2283001);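 for AC50: potency for gain of reporter signal over DMSO so agonist or activator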
# Method in brief: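 Gain-of-signal endpoint: reporter mRNA induction relative to DMSO, detected by fluorescent RT-PCR and capillary electrophoresis. HepG2 cells transiently carried GAL4-UAS-driven reporter units plus NR-Gal4 fusion; exposure lasted 24 h.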
# [15] = biological target: Steroid hormone receptor ERR1 (Homo sapiens) (UniProt P11474); test: ATG_ERRa_TRANS: Attagene TRANS-FACTORIAL HepG2 Assay for human Estrogen-Related Receptor alpha (ERRa) (AID 2282971); conditions: HepG2 Attagene TRANS reporter, ERRa transactivation
# Method in brief: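 Signal gain relative to DMSO for an ERRa-Gal4 chimeric receptor, read as reporter mRNA by RT-PCR/capillary electrophoresis. Human HepG2 liver cells, transient multiplex reporter transfection, 24 h chemical exposure.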
# [16] = biological target: Bile acid receptor (Homo sapiens) (UniProt Q96RI1); test: ATG_FXR_TRANS: Attagene TRANS-FACTORIAL HepG2 Assay for Farnesoid X Receptor (FXR) (AID 2282979); conditions: HepG2 Attagene TRANS FXR-GAL4 reporter transcription;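 note: hits raise reporter mRNA above DMSO so AC50 marks FXR activation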
# Method in brief: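 After 24 h chemical treatment of transfected HepG2 cells, GAL4-UAS reporter transcripts driven by an exogenous FXR-GAL4 fusion were measured by RT-PCR and capillary electrophoresis. Increases over DMSO were fitted.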
compound,measurement,setting,value
CCCCCC(=O)OCCc1ccccc1,outcome,[7],inactive
same,AC50,[8],inconclusive: 60.1 µM
same,AC50,[1],inconclusive: 0.0873 µM
same,AC50,[9],inconclusive: 100 µM
same,AC50,[2],inconclusive: 100 µM
same,AC50,[10],inconclusive: 100 µM
same,AC50,[3],inconclusive: 100 µM
same,outcome,[11],inactive
same,outcome,[4],inactive
same,AC50,[12],inconclusive: 6.57 µM
Nc1cc(Cl)c(N)c(Cl)c1,outcome,[7],inactive
same,outcome,[8],inactive
same,outcome,[1],inactive
same,outcome,[3],inactive
same,AC50,[11],inconclusive: 100 µM
same,AC50,[4],inconclusive: 185 µM
same,AC50,[5],inconclusive: 0.0664 µM
same,AC50,[6],active: 26.5 µM
CCCCCCCCCCCCS,AC50,[8],active: 5.01 µM
same,outcome,[1],inactive
same,AC50,[10],inconclusive: 100 µM
same,AC50,[3],inconclusive: 155 µM
same,AC50,[11],inconclusive: 5.72 µM
same,AC50,[12],inconclusive: 100 µM
same,AC50,[5],inconclusive: 0.34 µM
CC(CC=O)CCCC(C)(C)O (configuration not stated),AC50,[15],inconclusive: 99.5 µM
same,outcome,[8],inactive
same,outcome,[9],inactive
same,AC50,[2],inconclusive: 99.5 µM
same,AC50,[13],inconclusive: 99.5 µM
same,AC50,[10],inconclusive: 99.5 µM
same,outcome,[3],inactive
same,outcome,[12],inactive
same,AC50,[6],inconclusive: 171 µM
CC1(C)NC(=O)N(c2ccc([N+](=O)[O-])c(C(F)(F)F)c2)C1=O,AC50,[8],inconclusive: 794 nM and inconclusive: 170 µM
same,AC50,[1],inconclusive: 61.4 µM and inconclusive: 100 µM and inconclusive: 26.8 µM
same,outcome,[1],inactive
same,AC50,[13],inconclusive: 100 µM
same,outcome,[13],inactive
same,AC50,[3],inconclusive: 100 µM
same,AC50,[11],inconclusive: 100 µM
same,AC50,[4],inconclusive: 100 µM and inconclusive: 82.3 nM
same,AC50,[12],inconclusive: 24.3 µM and inconclusive: 100 µM
same,AC50,[14],inconclusive: 299 nM and inconclusive: 24.7 µM
same,AC50,[6],inconclusive: 30.8 µM and inconclusive: 139 µM and inconclusive: 100 µM
CCCCCCCCOC(=O)c1cc(O)c(O)c(O)c1,AC50,[7],active: 20 µM
same,AC50,[15],inconclusive: 46.8 µM
same,AC50,[8],inconclusive: 33.4 µM
same,AC50,[1],inconclusive: 57.3 µM
same,AC50,[9],inconclusive: 33.4 µM
same,outcome,[2],inactive
same,AC50,[16],active: 43 µM
same,AC50,[13],active: 52.2 µM
same,outcome,[11],inactive
same,AC50,[12],active: 24.2 µM
same,AC50,[14],active: 33.4 µM
same,AC50,[5],active: 39.7 µM
same,outcome,[6],inactive

# Three records drawn at random from those above:
compound,measurement,setting,value
CCCCCCCCOC(=O)c1cc(O)c(O)c(O)c1,AC50,[8],inconclusive: 33.4 µM
CC(CC=O)CCCC(C)(C)O (configuration not stated),outcome,[8],inactive
Nc1cc(Cl)c(N)c(Cl)c1,outcome,[1],inactive
